Experimental data reported in PubChem BioAssay AID540276 (National Center for Advancing Translational Sciences (NCATS), 2011).
Out of some 300,000 compounds screened, about 5,400 (1.8%) were called active. This list was built around the results that the source calls inconclusive (neither active nor inactive); the mix of calls is not that of the screen. Calls come from the whole dose curve; tested in HEK293 cells. Where the call is inconclusive, the potency comes from a doubtful curve fit.

Experiment: qHTS for inhibitors of binding or entry into cells for Marburg Virus
Conditions: Marburg virus pseudotyped entry inhibition, cell reporter; series mostly up to 37.8 µM
Potency is the fitted concentration of half-maximal effect.

Row | Compound | Potency
1 | CC(C)Cn1c(=O)c2ccccc2n2c(CCC(=O)N3CCN(c4ccccc4)CC3)nnc12 | inconclusive: 35.5 µM [inhibitor, single point]
2 | C=CCc1cccc(/C=N/NC(=O)CCCNc2ccc(C)cc2)c1O | inconclusive: 0.794 µM [inhibitor, single point]
3 | COc1ccccc1Cn1c(=S)[nH]c2cc(C(=O)NCc3cccnc3)ccc2c1=O | inconclusive: 7.08 µM [inhibitor, partial curve, poor fit]
4 | CCOC(=O)N1CCC(NC(=O)CSCc2nc(-c3ccccc3Cl)oc2C)CC1 | inactive
5 | COc1ccc(NC(=O)CSc2nc(C)cs2)cc1 | inconclusive: 3.16 µM [activator, single point]
6 | CC1(C)Cc2nc3sc(C(=O)NCCCO)c(N)c3cc2CS1 | inconclusive: 10 µM [activator, partial curve, poor fit]
7 | COc1ccc2nc(/C=N/NC(=O)CCCCCNC(=O)OC(C)(C)C)ccc2c1 | inconclusive: 14.1 µM [inhibitor, single point]
8 | Cc1ccc(N=CC2=C(O)CC(c3cccc(Cl)c3)CC2=O)cc1 (stereo unspecified) | inconclusive: 5.62 µM [activator, single point]
9 | CCCCn1c(SCC(=O)NC(C)CC)nc2ccc(N3CCOCC3)cc2c1=O (stereo unspecified) | inactive
10 | Cn1c(=O)c2c(O)cc(=O)n(-c3ccccc3)c2n(C)c1=O | inactive
11 | O=C(NC(=S)Nc1ccc(N2CCCCC2)cc1)c1ccco1 | inconclusive: 0.411 µM [activator, partial curve, poor fit]
12 | O=C(NCc1ccco1)C(c1cccnc1)N(C(=O)Cn1nnc2ccccc21)c1ccc(F)cc1 (stereo unspecified) | inconclusive: 14.1 µM [inhibitor, single point]
13 | Cc1cccc(C(=O)NCC(=O)N2CCN(S(=O)(=O)c3ccccc3)CC2)c1 | inactive
14 | O=C(NCc1cccnc1)c1cc(S(=O)(=O)N2CCCCC2)ccc1Cl | inactive
15 | Cc1ccc(S(=O)(=O)N(CC(=O)N/N=C\c2cccs2)c2cccc3cccnc23)cc1 | inactive
16 | CC(=O)Nc1ccc(NCC(O)COc2ccccc2)cc1 (stereo unspecified) | inconclusive: 5.62 µM [activator, partial curve, poor fit]
17 | O=S(=O)(Nc1nc2ccc(S(=O)(=O)N3CCCCC3)cc2s1)c1ccccc1 | inconclusive: 18.3 µM [activator, partial curve, poor fit]
18 | COc1ccc(-c2csc(N(C)C(=O)c3cccs3)n2)cc1 | inactive
19 | O=C(Oc1ccc(Cl)c2cccnc12)c1cccc([N+](=O)[O-])c1 | inactive
20 | Cc1ccc(C(=O)NNC(=O)c2ccccc2OCc2c(C)noc2C)cc1 | active: 3.55 µM
21 | COc1cccc(NC(=O)c2cccc(OC)c2OC)c1 | inactive
22 | COc1ccc(NC(=O)C2CCN(C(=O)Cc3ccccc3)CC2)c(OC)c1 | inactive
23 | COc1cc(NC(=O)Cc2cccs2)c(C(=O)O)cc1OC | inconclusive: 5.62 µM [inhibitor, single point]

Row | Compound | Potency
24 | O=c1c2ccccc2nc(-c2ccc(Cl)c(Cl)c2)n1O | inactive
25 | CCOc1ccc(OCC)c(NC(=O)CCc2nc3cccnc3n2-c2ccccc2)c1 | inactive
26 | Cc1cc(C)c(S(=O)(=O)/N=C2/C=C(SCC(=O)O)C(=O)c3ccccc32)cc1C | inconclusive: 22.4 µM [inhibitor, single point]
27 | Cc1[nH]c2ccccc2c1C1(O)C(=O)N(Cc2ccccc2Cl)c2ccccc21 (stereo unspecified) | inactive
28 | CN1CCN(C(=S)C(=O)NCc2ccccc2)CC1 | inconclusive: 1.26 µM [inhibitor, partial curve, poor fit]
29 | C/C(=C\c1ccccc1)CN1CCC(C(=O)N2CCCCC2)CC1 | inactive
30 | CC(C)N1C(=O)C(=O)N(CC(=O)N2c3ccccc3NC(=O)CC2C)C1=O (stereo unspecified) | inactive
31 | NS(=O)(=O)c1ccc(CCNC(=O)C2CCC(CNS(=O)(=O)c3ccc(Br)s3)CC2)cc1 (stereo unspecified) | inconclusive: 35.5 µM [inhibitor, single point]
32 | O=C(CSC(=S)N1CCCC1)Nc1ccc(Br)cc1Cl | inconclusive: 0.251 µM [inhibitor, full curve, poor fit]
33 | O=C(COC(=O)c1cc(-c2ccc(Cl)s2)nc2ccccc12)NCc1ccco1 | inconclusive: 25.1 µM [inhibitor, partial curve, poor fit]
34 | O=C(CCS(=O)(=O)c1ccc(Cl)cc1)Nc1ccc(F)cc1 | inactive
35 | COc1ccc(NC(=O)Cn2c(=O)n(-c3cccc(C(F)(F)F)c3)c(=O)c3sccc32)cc1 | inconclusive: 3.55 µM [activator, single point]
36 | Cc1ccc(C)c(N2CCN(C(=O)C3CCCN(Cc4nc(-c5cccc(Cl)c5)oc4C)C3)CC2)c1 (stereo unspecified) | inactive
37 | COC(=O)C1CCN(C(=O)c2sc3nc(-c4ccc(F)cc4)cn3c2C)CC1 | inactive
38 | Cc1ccccc1NC(=O)CCC(=O)N/N=C/c1cccnc1 | inactive
39 | Cc1cc(C)cc(NC(=S)NCCc2c[nH]c3ccccc23)c1 | inconclusive: 29.1 µM [inhibitor, single point]
40 | CCOc1ccc(N2C(=O)C3C4C=CC(CC4)C3C2=O)c([N+](=O)[O-])c1 (stereo unspecified) | inconclusive: 2.82 µM [activator, full curve, poor fit]
41 | O=C(Cc1ccc(Br)cc1)N1CCN(Cc2ccccc2)CC1 | inconclusive: 35.5 µM [inhibitor, single point]
42 | CCC(C)Nc1nc2c(c(=O)[nH]c(=O)n2C)n1CCCc1ccccc1 (stereo unspecified) | inconclusive: 10 µM [inhibitor, partial curve, poor fit]
43 | Cc1cccc(C)c1NC(=O)c1cccnc1 | inconclusive: 35.5 µM [activator, partial curve, poor fit]
44 | O=C(NCCN1CCOC1=O)C1CCC(=O)N(CCc2ccc(Cl)cc2)C1 (stereo unspecified) | inactive
45 | COc1ccc(Cn2c(CCC(=O)Nc3ccc(CC#N)cc3)nc3cccnc32)cc1 | inconclusive: 1.83 µM [inhibitor, partial curve, poor fit]
46 | CCNc1nc(Cl)nc(N(NC(C)=O)C(C)CC)n1 (stereo unspecified) | inconclusive: 35.5 µM [activator, single point]
